Data reported in article PMC3600519, “Acute toxicity of vipoxin and its components: is the acidic component an “inhibitor” of PLA2 toxicity?” (Interdisciplinary Toxicology, 2012).
No constants are given. Whether binding was seen depends on the method and setting. Some binding calls cover weakened binding; strength is not graded here.

Biological target: T1, vipoxin basic and toxic phospholipase A2 subunit (Vipera ammodytes meridionalis) (UniProt P14420)
T1 sequence: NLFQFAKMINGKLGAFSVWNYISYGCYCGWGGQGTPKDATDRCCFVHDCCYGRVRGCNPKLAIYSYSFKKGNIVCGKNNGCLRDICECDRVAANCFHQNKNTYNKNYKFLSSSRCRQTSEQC
Test: co-purification by ion-exchange chromatography

B1: vipoxin's acidic component (natural protein)
chain: NLFQFGDMILQKTGKEAVHSYAIYGCYCGWGGQGRAQDATDRCCFAQDCCYGRVNDCNPKTATYTYSFENGDIVCGDNDLCLRAVCECDRAAAICLGENVNTYDKNYEYYSISHCTEESEQC
binding: binds
